{"source": "PubChem BioAssay AID1259285, Sanger Institute | 2017", "screen": "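Kinases needed for HCC56 growth and kinases whose loss boosts drug effects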 (primary screen)", "cell system": "human HCC56 colorectal cancer cells", "knock-down reagent": "siRNA pool against human genes", "conditions": "DMSO vehicle, or anchor drug BYL719 at 1 µM, cetuximab at 5 µg/ml, or trametinib at 10 nM", "detection": "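Replicate-averaged viability relative to non-targeting siRNA, expressed as a robust z-score from controls, plus a synergy score for each of three anchor drugs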", "direction": "viability robust z-score, no drug: higher = more viable cells, weaker knock-down effect", "active means": "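Essential when the drug-free viability robust z-score falls below -3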", "meaning of the calls": "active = essential without drug; inactive = no change without drug", "note": "This is one part, drawn at random, of 794 reagents. Of all reagents, 20 (2.5%) got an active call. 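Calls rest on the drug-free arm alone and ignore synergy scores; viability ratios seem to be capped at 1.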 Not all columns of the deposit are shown. Not stated in the record: the amount of reagent, the time to read-out."}
{"target gene": "PRKCI", "viability robust z-score, no drug": 0.458, "Outcome": "inactive"}
{"target gene": "ACSL6", "viability robust z-score, no drug": 0.458, "Outcome": "inactive"}
{"target gene": "CDKN2B", "viability robust z-score, no drug": 0.458, "Outcome": "inactive"}
{"target gene": "CDKL2", "viability robust z-score, no drug": 0.458, "Outcome": "inactive"}
{"target gene": "NR2F2", "viability robust z-score, no drug": -2.03, "Outcome": "inactive"}
{"target gene": "CKS1B", "viability robust z-score, no drug": 0.458, "Outcome": "inactive"}
{"target gene": "IP6K3", "viability robust z-score, no drug": -0.294, "Outcome": "inactive"}
{"target gene": "CDC42BPB", "viability robust z-score, no drug": 0.458, "Outcome": "inactive"}
{"target gene": "PRKCZ", "viability robust z-score, no drug": 0.458, "Outcome": "inactive"}
{"target gene": "TRPM6", "viability robust z-score, no drug": 0.458, "Outcome": "inactive"}
{"target gene": "CAMK2D", "viability robust z-score, no drug": 0.458, "Outcome": "inactive"}
{"target gene": "ACVR2B", "viability robust z-score, no drug": -0.189, "Outcome": "inactive"}
{"target gene": "FGFR1", "viability robust z-score, no drug": 0.458, "Outcome": "inactive"}
{"target gene": "SGK2", "viability robust z-score, no drug": -2.69, "Outcome": "inactive"}

Targets above whose gene name starts with A or a:
{"target gene": "ACSL6", "viability robust z-score, no drug": 0.458, "Outcome": "inactive"}
{"target gene": "ACVR2B", "viability robust z-score, no drug": -0.189, "Outcome": "inactive"}

The results go on:
{"target gene": "GAK", "viability robust z-score, no drug": 0.448, "Outcome": "inactive"}
{"target gene": "SOS2", "viability robust z-score, no drug": 0.458, "Outcome": "inactive"}
{"target gene": "AXL", "viability robust z-score, no drug": 0.458, "Outcome": "inactive"}
{"target gene": "NTN4", "viability robust z-score, no drug": -0.624, "Outcome": "inactive"}
{"target gene": "PIK3CB", "viability robust z-score, no drug": 0.458, "Outcome": "inactive"}
{"target gene": "SIK2", "viability robust z-score, no drug": -3.12, "Outcome": "active"}
{"target gene": "RFK", "viability robust z-score, no drug": 0.458, "Outcome": "inactive"}
{"target gene": "TNK1", "viability robust z-score, no drug": 0.458, "Outcome": "inactive"}
{"target gene": "FYN", "viability robust z-score, no drug": 0.458, "Outcome": "inactive"}
{"target gene": "TYRO3", "viability robust z-score, no drug": 0.458, "Outcome": "inactive"}
{"target gene": "MELK", "viability robust z-score, no drug": 0.458, "Outcome": "inactive"}
{"target gene": "IRAK4", "viability robust z-score, no drug": -1.2, "Outcome": "inactive"}
{"target gene": "GRK3", "viability robust z-score, no drug": 0.458, "Outcome": "inactive"}
{"target gene": "MPP2", "viability robust z-score, no drug": -0.954, "Outcome": "inactive"}
{"target gene": "OBSCN", "viability robust z-score, no drug": 0.458, "Outcome": "inactive"}
{"target gene": "RIPK4", "viability robust z-score, no drug": 0.458, "Outcome": "inactive"}
{"target gene": "ARAF", "viability robust z-score, no drug": 0.458, "Outcome": "inactive"}
{"target gene": "CDK8", "viability robust z-score, no drug": 0.458, "Outcome": "inactive"}
{"target gene": "FN3K", "viability robust z-score, no drug": 0.319, "Outcome": "inactive"}
{"target gene": "SOX9", "viability robust z-score, no drug": 0.458, "Outcome": "inactive"}
{"target gene": "CHEK1", "viability robust z-score, no drug": -5.58, "Outcome": "active"}
{"target gene": "PDIK1L", "viability robust z-score, no drug": 0.458, "Outcome": "inactive"}
